# Source: PubChem BioAssay AID1159584 (Peter MacCallum Cancer Centre, 2016)
# Purpose: 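Knock-downs that harm CDH1-null cells more than parental MCF10A cells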 (primary screen)
# Cell system: human MCF10A breast epithelial cells, parental and CDH1-null
# Reagents: siRNA against human genes
# Detection: 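ATP luminescence (CellTiter-Glo) viability per line relative to mean mock wells over all plates, and the ratio of CDH1-null to parental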
# Direction: CDH1-null / parental viability ratio: higher = CDH1-null cells survive relatively better than parental; CDH1-null viability vs mock: higher = more viable CDH1-null cells; parental viability vs mock: higher = more viable parental cells
# This is a random part of about 18,000 reagents. Not given: the amount of reagent, the time to read-out.
gene,CDH1-null / parental viability ratio,CDH1-null viability vs mock (fraction of mock),parental viability vs mock (fraction of mock)
SERPINA7 (serpin family A member 7),0.99,0.89,0.9
ERI3 (ERI1 exoribonuclease family member 3),1.21,1.03,0.85
NFKBIA (NFKB inhibitor alpha),1.31,0.76,0.58
TMPRSS5 (transmembrane serine protease 5),1.14,0.96,0.84
DNPEP (aspartyl aminopeptidase),1.53,0.72,0.47
INPP5J (inositol polyphosphate-5-phosphatase J),1.68,0.99,0.59
TTC32 (tetratricopeptide repeat domain 32),1.15,0.71,0.62
PDIA4 (protein disulfide isomerase family A member 4),1,1.02,1.02
BIN2 (bridging integrator 2),1,1.04,1.04
OR7E24 (olfactory receptor family 7 subfamily E member 24),0.81,0.84,1.04
CHMP6 (charged multivesicular body protein 6),0.87,0.98,1.13
RBM34 (RNA binding motif protein 34),1.13,0.61,0.54
LXN (latexin),0.79,0.66,0.84
TMEM39B (transmembrane protein 39B),0.9,0.74,0.82
DGUOK (deoxyguanosine kinase),1,0.76,0.76
RASSF2 (Ras association domain family member 2),1.09,0.62,0.57
MOGAT1 (monoacylglycerol O-acyltransferase 1),1,1,1
CACNA2D3,1.1,0.88,0.8
EGLN1 (egl-9 family hypoxia inducible factor 1),0.81,0.71,0.88
PELI2 (pellino E3 ubiquitin protein ligase family member 2),0.94,0.91,0.97
UCP2 (uncoupling protein 2),1.14,0.91,0.8
RBMS1 (RNA binding motif single stranded interacting protein 1),1.15,0.94,0.82
"COQ7 (coenzyme Q7, hydroxylase)",0.84,0.8,0.95
CHMP4C (charged multivesicular body protein 4C),1.44,0.52,0.36
SLMAP (sarcolemma associated protein),1.21,0.97,0.8
PUS1 (pseudouridine synthase 1),1.34,0.82,0.61
HNRNPU (heterogeneous nuclear ribonucleoprotein U),1.35,0.66,0.49
NEK4 (NIMA related kinase 4),0.77,0.62,0.8
CDK20 (cyclin dependent kinase 20),0.87,0.52,0.6
VWCE (von Willebrand factor C and EGF domains),0.85,0.88,1.04
APOL6 (apolipoprotein L6),1.09,1,0.92
MTFR2 (mitochondrial fission regulator 2),1.38,0.66,0.48
"IDO1 (indoleamine 2,3-dioxygenase 1)",1.09,0.96,0.88
KATNAL1 (katanin catalytic subunit A1 like 1),0.8,0.79,0.99
RAG1 (recombination activating 1),0.96,0.72,0.75
RRAGC (Ras related GTP binding C),0.94,0.58,0.62

Sorted by “CDH1-null viability vs mock (fraction of mock)” (high to low): some entries from above.
gene,CDH1-null / parental viability ratio,CDH1-null viability vs mock (fraction of mock),parental viability vs mock (fraction of mock)
BIN2 (bridging integrator 2),1,1.04,1.04
PDIA4 (protein disulfide isomerase family A member 4),1,1.02,1.02
CHMP6 (charged multivesicular body protein 6),0.87,0.98,1.13
OR7E24 (olfactory receptor family 7 subfamily E member 24),0.81,0.84,1.04
TTC32 (tetratricopeptide repeat domain 32),1.15,0.71,0.62
LXN (latexin),0.79,0.66,0.84
RBM34 (RNA binding motif protein 34),1.13,0.61,0.54

Further results follow.
gene,CDH1-null / parental viability ratio,CDH1-null viability vs mock (fraction of mock),parental viability vs mock (fraction of mock)
PIP5K1B (phosphatidylinositol-4-phosphate 5-kinase type 1 beta),1.03,0.94,0.91
MINK1 (misshapen like kinase 1),0.78,0.58,0.74
ISL2 (ISL LIM homeobox 2),1.21,0.75,0.62
CCND3 (cyclin D3),0.99,0.66,0.67
PAM (peptidylglycine alpha-amidating monooxygenase),1,0.98,0.98
SEMG1 (semenogelin 1),0.99,0.85,0.86
RFLNA (refilin A),1.21,0.64,0.53
IKBKE (inhibitor of nuclear factor kappa B kinase subunit epsilon),0.96,0.77,0.8
POLRMT (RNA polymerase mitochondrial),0.98,1,1.02
DTX3 (deltex E3 ubiquitin ligase 3),1.01,0.8,0.79
SEMA4F (ssemaphorin 4F),1.04,0.94,0.9
FOXO3 (forkhead box O3),0.9,0.92,1.02
NBR1 (NBR1 autophagy cargo receptor),1.1,0.66,0.6
IQCF2 (IQ motif containing F2),1.13,0.7,0.62
"PIN1 (peptidylprolyl cis/trans isomerase, NIMA-interacting 1)",1.04,0.79,0.76
VANGL1 (VANGL planar cell polarity protein 1),1.27,0.89,0.7
QSOX1 (quiescin sulfhydryl oxidase 1),1.1,0.55,0.5
OR1J2 (olfactory receptor family 1 subfamily J member 2),1.2,1.09,0.91
MTHFS (methenyltetrahydrofolate synthetase),0.99,0.97,0.98
TMEM107 (transmembrane protein 107),1.33,0.52,0.39
IFNA10 (interferon alpha 10),1.09,0.72,0.66
GNB1 (G protein subunit beta 1),0.86,0.66,0.77
SPATA1 (spermatogenesis associated 1),1.12,0.84,0.75
KRTAP5-10 (keratin associated protein 5-10),1.19,0.83,0.7
TIGD5 (tigger transposable element derived 5),1,0.64,0.64
AKIRIN2 (akirin 2),0.77,0.44,0.57
PDZRN3 (PDZ domain containing ring finger 3),0.99,0.93,0.94
KLHL9 (kelch like family member 9),1.2,1.12,0.93
WASHC2C (WASH complex subunit 2C),0.99,1.03,1.04
SLC39A2,1.03,0.64,0.62
SCARA5 (scavenger receptor class A member 5),0.84,0.76,0.91
C6orf89 (chromosome 6 open reading frame 89),1.3,0.78,0.6
